Values of other authors in patent EP2319515A1, “COCCIDICIDE COMBINATION FOR VETERINARY USE” (Laboratorio Avi-Mex, S.A. De C.V., priority 2008, dated 2010).
Some entries share one result that the patent states for a list of compounds. At least one read-out could not be matched to a standard name with certainty.

Protein sequences, listed by entry. Tags and fused reporters are not part of them. Lines headed by an entry give the natural chain unless they say otherwise; changes in a name come on top.
UniProt P00378: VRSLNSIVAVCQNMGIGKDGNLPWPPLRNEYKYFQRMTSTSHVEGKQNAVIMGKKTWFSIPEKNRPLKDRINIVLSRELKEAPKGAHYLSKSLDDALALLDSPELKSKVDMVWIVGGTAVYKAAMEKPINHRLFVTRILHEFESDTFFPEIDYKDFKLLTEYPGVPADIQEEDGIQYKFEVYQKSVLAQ

Biological target: dihydrophilic acid reductase (Gallus gallus, UniProt P00378)
Conditions: birds versus coccidias; Parasitol Res 1989, 76 (1), 8-12; cited from earlier work

Structure (SMILES): Cc1cc(-n2c(=O)[nH]c(=O)n(C)c2=O)ccc1Oc1ccc(SC(F)(F)F)cc1 [Example 2]
- effect weaker in birds with respect to coccidias: 500 fold
